Structures were worked out from names or drawings and are uncertain.

Amino acid sequences for entries named in this document (tags omitted).
UniProt O00329, whole entry: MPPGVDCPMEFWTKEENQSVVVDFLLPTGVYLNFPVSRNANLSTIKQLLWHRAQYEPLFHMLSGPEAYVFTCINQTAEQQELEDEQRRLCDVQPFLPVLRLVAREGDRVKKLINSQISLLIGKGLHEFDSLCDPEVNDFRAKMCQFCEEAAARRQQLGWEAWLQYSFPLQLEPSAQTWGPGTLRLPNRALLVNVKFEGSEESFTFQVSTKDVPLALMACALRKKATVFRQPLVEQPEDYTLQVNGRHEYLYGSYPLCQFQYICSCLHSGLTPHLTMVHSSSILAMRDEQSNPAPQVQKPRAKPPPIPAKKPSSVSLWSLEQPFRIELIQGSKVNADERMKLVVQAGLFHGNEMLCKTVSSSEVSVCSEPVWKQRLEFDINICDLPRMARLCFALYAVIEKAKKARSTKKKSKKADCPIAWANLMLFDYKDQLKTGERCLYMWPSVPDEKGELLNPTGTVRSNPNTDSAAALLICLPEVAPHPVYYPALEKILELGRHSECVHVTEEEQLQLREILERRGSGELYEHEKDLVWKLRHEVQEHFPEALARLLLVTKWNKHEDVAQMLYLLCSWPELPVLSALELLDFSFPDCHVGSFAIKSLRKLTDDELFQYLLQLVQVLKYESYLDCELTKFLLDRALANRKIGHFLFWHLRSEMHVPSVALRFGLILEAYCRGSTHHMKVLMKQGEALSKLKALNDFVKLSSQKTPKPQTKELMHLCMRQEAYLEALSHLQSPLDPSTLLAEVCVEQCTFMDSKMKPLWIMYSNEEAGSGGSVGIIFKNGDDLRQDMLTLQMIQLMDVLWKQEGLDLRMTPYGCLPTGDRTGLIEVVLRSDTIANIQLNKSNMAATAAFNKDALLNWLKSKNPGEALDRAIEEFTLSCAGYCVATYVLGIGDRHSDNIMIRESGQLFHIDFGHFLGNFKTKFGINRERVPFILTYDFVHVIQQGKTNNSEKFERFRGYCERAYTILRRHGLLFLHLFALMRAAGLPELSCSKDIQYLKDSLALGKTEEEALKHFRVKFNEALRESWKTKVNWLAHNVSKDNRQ
UniProt P27986, whole entry partner: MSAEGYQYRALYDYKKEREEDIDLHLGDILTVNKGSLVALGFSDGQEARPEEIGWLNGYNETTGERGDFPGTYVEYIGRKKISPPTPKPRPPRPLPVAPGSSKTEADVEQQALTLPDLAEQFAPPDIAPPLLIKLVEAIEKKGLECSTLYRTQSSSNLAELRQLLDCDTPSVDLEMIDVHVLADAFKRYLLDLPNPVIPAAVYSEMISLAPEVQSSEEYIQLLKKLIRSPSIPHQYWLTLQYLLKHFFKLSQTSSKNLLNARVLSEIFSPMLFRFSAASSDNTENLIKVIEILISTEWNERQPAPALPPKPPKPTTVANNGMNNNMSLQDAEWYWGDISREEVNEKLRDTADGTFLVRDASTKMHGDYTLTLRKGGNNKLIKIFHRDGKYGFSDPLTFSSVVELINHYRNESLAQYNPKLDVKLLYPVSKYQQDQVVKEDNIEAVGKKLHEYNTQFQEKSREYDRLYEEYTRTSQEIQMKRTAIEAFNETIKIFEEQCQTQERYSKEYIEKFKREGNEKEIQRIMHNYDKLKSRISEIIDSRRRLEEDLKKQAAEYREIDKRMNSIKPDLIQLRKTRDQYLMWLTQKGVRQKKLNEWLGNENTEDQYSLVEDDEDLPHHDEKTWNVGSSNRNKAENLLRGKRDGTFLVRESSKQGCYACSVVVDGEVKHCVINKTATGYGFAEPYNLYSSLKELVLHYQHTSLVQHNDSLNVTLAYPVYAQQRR

This assay concerns the target PI3K delta (Homo sapiens (Human), UniProt O00329). Description: Luciferase-coupled chemiluminescence kinase assay (KinaseGlo, ATP consumption). Particulars: read-out: PI3K Delta Activity IC50.
Take `COc1ccc(NCc2cc3cccc(C)c3nc2-c2ccccc2Cl)cc1OC`: the IC50 was 500 to 1500 nM.
For the compound `COc1cc(NCc2cc3cccc(C)c3nc2-c2ccccc2Cl)cc(OC)c1`, the IC50 lay in the range of 500 to 1500 nM.
`Cc1ccc(S(=O)(=O)N(C)CCN(C)c2nc3c(C)cccc3cc2CNC(=O)c2nccnc2N)cc1`: the IC50 lay in the range of 500 to 1500 nM.

The values are drawn from patent US9670212B2, “Inhibitors of PI3K-delta and methods of their use and manufacture” (Exelixis, Inc., priority 2010, dated 2017).
